Experimental data: PubChem BioAssay AID652243 (Drosophila RNAi Screening Center, 2013)
In all, the deposit lists about 24,000 reagents; this is an unselected part of those with a known target gene and a result. Over the whole deposit, 246 (1%) got an active call. 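Plates not normalised; calls are printed but the firefly/Renilla ratio behind them is not deposited; fold cut for lowering reported inconsistently.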 The raw values are shown without normalisation. Unmarked entries are inactive. The record does not give: the amount of reagent.

Test: 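Knock-downs that decrease or increase androgen receptor reporter signal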 (primary screen)
Cell system: Drosophila S2R+ cells
Reagent: long dsRNA against Drosophila genes
Timing: 72 h (48 h, then 24 h hormone)
Conditions: synthetic androgen R1881 at 10 nM for 24 h
Detection: 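Per-well raw luminescence of the androgen-driven firefly reporter and of the Renilla control, two replicates each, without normalisation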
Scale: firefly reporter light: higher = more light from androgen-responsive reporter; Renilla control light: higher = more constitutive control signal (cell number, transfection)
Call rule: 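Hit when the log firefly-to-Renilla ratio dropped or increased by a fixed fold versus the mean of GFP or LacZ controls across duplicate plates; lowering cut given as 1.5 and as 3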
Calls: active = hit: reporter lowered or raised; inactive = no hit

Cnx99A (Calnexin 99A) [DRSC25426] — firefly reporter light, replicate 1: 6.63e5; firefly reporter light, replicate 2: 4.65e5; Renilla control light, replicate 1: 7.25e5; Renilla control light, replicate 2: 5.23e5
CG5550 [DRSC06943] — firefly reporter light, replicate 1: 56813; firefly reporter light, replicate 2: 65370; Renilla control light, replicate 1: 7.66e5; Renilla control light, replicate 2: 7.66e5
CG5550 [DRSC29735] — firefly reporter light, replicate 1: 6.03e5; firefly reporter light, replicate 2: 5.15e5; Renilla control light, replicate 1: 1.57e6; Renilla control light, replicate 2: 1.37e6
CG10029 [DRSC12498] — firefly reporter light, replicate 1: 66171; firefly reporter light, replicate 2: 50670; Renilla control light, replicate 1: 9.58e5; Renilla control light, replicate 2: 1.00e6
Df31 (Decondensation factor 31) [DRSC03738] — firefly reporter light, replicate 1: 3.89e5; firefly reporter light, replicate 2: 3.98e5; Renilla control light, replicate 1: 2.23e6; Renilla control light, replicate 2: 2.63e6
Df31 (Decondensation factor 31) [DRSC22163] — firefly reporter light, replicate 1: 6.88e5; firefly reporter light, replicate 2: 5.49e5; Renilla control light, replicate 1: 2.44e6; Renilla control light, replicate 2: 1.99e6
SF2 (Splicing factor 2) [DRSC16845] — firefly reporter light, replicate 1: 1.89e5; firefly reporter light, replicate 2: 1.78e5; Renilla control light, replicate 1: 4.37e6; Renilla control light, replicate 2: 3.61e6

2 entries from above, ordered by “firefly reporter light, replicate 1”, descending:
Cnx99A (Calnexin 99A) [DRSC25426] — firefly reporter light, replicate 1: 6.63e5; firefly reporter light, replicate 2: 4.65e5; Renilla control light, replicate 1: 7.25e5; Renilla control light, replicate 2: 5.23e5
CG5550 [DRSC06943] — firefly reporter light, replicate 1: 56813; firefly reporter light, replicate 2: 65370; Renilla control light, replicate 1: 7.66e5; Renilla control light, replicate 2: 7.66e5

The list goes on.
CG4988 [DRSC02800] — firefly reporter light, replicate 1: 3.11e5; firefly reporter light, replicate 2: 2.29e5; Renilla control light, replicate 1: 1.72e6; Renilla control light, replicate 2: 1.69e6
CG7556 [DRSC20052] — firefly reporter light, replicate 1: 83181; firefly reporter light, replicate 2: 2.00e5; Renilla control light, replicate 1: 7.36e5; Renilla control light, replicate 2: 7.63e5
CG7556 [DRSC26701] — firefly reporter light, replicate 1: 2.73e5; firefly reporter light, replicate 2: 2.16e5; Renilla control light, replicate 1: 5.79e5; Renilla control light, replicate 2: 4.30e5
Jon66Ci (Jonah 66Ci) [DRSC10772] — firefly reporter light, replicate 1: 1.48e5; firefly reporter light, replicate 2: 1.25e5; Renilla control light, replicate 1: 1.74e6; Renilla control light, replicate 2: 1.53e6
Jon66Ci (Jonah 66Ci) [DRSC26520] — firefly reporter light, replicate 1: 2.94e5; firefly reporter light, replicate 2: 2.58e5; Renilla control light, replicate 1: 8.68e5; Renilla control light, replicate 2: 7.81e5
CG6356 [DRSC16026] — firefly reporter light, replicate 1: 1.45e5; firefly reporter light, replicate 2: 1.88e5; Renilla control light, replicate 1: 2.29e6; Renilla control light, replicate 2: 2.17e6
CG14646 [DRSC12232] — firefly reporter light, replicate 1: 3.66e5; firefly reporter light, replicate 2: 3.64e5; Renilla control light, replicate 1: 3.10e6; Renilla control light, replicate 2: 3.01e6
CG14646 [DRSC21316] — firefly reporter light, replicate 1: 9.01e5; firefly reporter light, replicate 2: 6.78e5; Renilla control light, replicate 1: 1.74e6; Renilla control light, replicate 2: 1.28e6
